Measured values taken from publication PMC9507969.
Results are given in words; binding and its absence hold for the method and conditions named. In cells and extracts the contact can be indirect. Some results given as binding are weak or reduced against the parent protein; the word gives no strength.

T1: Bud20-TAP (S. cerevisiae) (UniProt Q08004)
T1 sequence: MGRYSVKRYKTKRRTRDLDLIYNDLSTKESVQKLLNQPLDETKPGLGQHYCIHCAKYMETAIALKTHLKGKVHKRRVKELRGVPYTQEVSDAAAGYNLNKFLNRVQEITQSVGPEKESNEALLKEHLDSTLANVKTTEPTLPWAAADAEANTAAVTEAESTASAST


Molecular target: T1, Bud20-TAP (S. cerevisiae)
Assay: co-IP; affinity purification of pre-60S particles via Bud20-TAP from S. cerevisiae crm1^T539C (untreated, LmB and/or diazaborine; ARX1 or Δarx1 background), SDS-PAGE and western blotting

Binder	binding
Nmd3 on the pre-60S particle (protein, UniProt P38861 1-518) MEFTPIDPHQHQNAATLLCCNCGTPIDGSTGLVMCYDCIKLTVDITQGIPREANISFCRNCERFLQPPGQWIRAELESRELLAICLRRLKGLTKVRLVDASFIWTEPHSRRIRIKLTVQGEAMTNTIIQQTFEVEYIVIAMQCPDCARSYTTNTWRATVQIRQKVPHKRTFLFLEQLILKHNAHVDTISISEAKDGLDFFYAQKNHAVKMIDFLNAVVPIKHKKSEELISQDTHTGASTYKFSYSVEIVPICKDDLVVLPKKLAKSMGNISQFVLCSKISNTVQFMDPTTLQTADLSPSVYWRAPFNALADVTQLVEFIVLDVDSTGISRGNRVLADITVARTSDLGVNDQVYYVRSHLGGICHAGDSVMGYFIANSNYNSDLFDGLNIDYVPDVVLVKKLYQRKSKKSRHWKLKRMAKEHKDIDASLDYNSRAQKQEMERAEKDYELFLQELEEDAELRQSVNLYKNREANVPPEEHEMDEDEDEDAPQINIDELLDELDEMTLEDGVENTPVESQQ	binds
Mrt4 on the pre-60S particle (protein, UniProt P33201 1-236) MPRSKRSKLVTLAQTDKKGRENKERIFDEVREALDTYRYVWVLHLDDVRTPVLQEIRTSWAGSKLIMGKRKVLQKALGEKREEEYKENLYQLSKLCSGVTGLLFTDEDVNTVKEYFKSYVRSDYSRPNTKAPLTFTIPEGIVYSRGGQIPAEEDVPMIHSLEPTMRNKFEIPTKIKAGKITIDSPYLVCTEGEKLDVRQALILKQFGIAASEFKVKVSAYYDNDSSTVESTNINME	binds
Nog1 on the pre-60S particle (protein, UniProt Q02892 1-647) MQLSWKDIPTVAPANDLLDIVLNRTQRKTPTVIRPGFKITRIRAFYMRKVKYTGEGFVEKFEDILKGFPNINDVHPFHRDLMDTLYEKNHYKISLAAISRAKSLVEQVARDYVRLLKFGQSLFQCKQLKRAALGRMATIVKKLRDPLAYLEQVRQHIGRLPSIDPNTRTLLICGYPNVGKSSFLRCITKSDVDVQPYAFTTKSLYVGHFDYKYLRFQAIDTPGILDRPTEEMNNIEMQSIYAIAHLRSCVLYFMDLSEQCGFTIEAQVKLFHSIKPLFANKSVMVVINKTDIIRPEDLDEERAQLLESVKEVPGVEIMTSSCQLEENVMEVRNKACEKLLASRIENKLKSQSRINNVLNKIHVAQPQARDDVKRTPFIPESVKNLKKYDPEDPNRRKLARDIEAENGGAGVFNVNLKDKYLLEDDEWKNDIMPEILDGKNVYDFLDPEIAAKLQALEEEEEKLENEGFYNSDDEEEIYDGFEASEVDDIKEKAAWIRNRQKTMIAEARNRKSLKNKAIMPRSKLTKSFGKMEEHMSTLGHDMSALQDKQNRAARKNRYVERGSDVVFGDQDALTASTENGVKLRQTDRLLDGVADGSMRSKADRMAKMERRERNRHAKQGESDRHNAVSLSKHLFSGKRGVGKTDFR	binds
